Measurements from PMC9911437.

Amino acid sequences for entries named in this document (tags omitted).
UniProt O35129: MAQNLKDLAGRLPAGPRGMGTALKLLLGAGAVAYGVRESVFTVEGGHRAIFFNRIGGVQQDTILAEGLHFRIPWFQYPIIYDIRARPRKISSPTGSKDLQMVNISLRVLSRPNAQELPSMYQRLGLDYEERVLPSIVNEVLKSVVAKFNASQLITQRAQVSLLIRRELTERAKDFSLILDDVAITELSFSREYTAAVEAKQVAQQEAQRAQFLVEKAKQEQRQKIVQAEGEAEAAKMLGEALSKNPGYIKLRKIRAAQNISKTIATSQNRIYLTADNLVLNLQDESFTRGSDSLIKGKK

Biological target: T1, GST-PE_PGRS30 fusion protein (Mycobacterium tuberculosis) (UniProt Q79FL8)
T1 sequence: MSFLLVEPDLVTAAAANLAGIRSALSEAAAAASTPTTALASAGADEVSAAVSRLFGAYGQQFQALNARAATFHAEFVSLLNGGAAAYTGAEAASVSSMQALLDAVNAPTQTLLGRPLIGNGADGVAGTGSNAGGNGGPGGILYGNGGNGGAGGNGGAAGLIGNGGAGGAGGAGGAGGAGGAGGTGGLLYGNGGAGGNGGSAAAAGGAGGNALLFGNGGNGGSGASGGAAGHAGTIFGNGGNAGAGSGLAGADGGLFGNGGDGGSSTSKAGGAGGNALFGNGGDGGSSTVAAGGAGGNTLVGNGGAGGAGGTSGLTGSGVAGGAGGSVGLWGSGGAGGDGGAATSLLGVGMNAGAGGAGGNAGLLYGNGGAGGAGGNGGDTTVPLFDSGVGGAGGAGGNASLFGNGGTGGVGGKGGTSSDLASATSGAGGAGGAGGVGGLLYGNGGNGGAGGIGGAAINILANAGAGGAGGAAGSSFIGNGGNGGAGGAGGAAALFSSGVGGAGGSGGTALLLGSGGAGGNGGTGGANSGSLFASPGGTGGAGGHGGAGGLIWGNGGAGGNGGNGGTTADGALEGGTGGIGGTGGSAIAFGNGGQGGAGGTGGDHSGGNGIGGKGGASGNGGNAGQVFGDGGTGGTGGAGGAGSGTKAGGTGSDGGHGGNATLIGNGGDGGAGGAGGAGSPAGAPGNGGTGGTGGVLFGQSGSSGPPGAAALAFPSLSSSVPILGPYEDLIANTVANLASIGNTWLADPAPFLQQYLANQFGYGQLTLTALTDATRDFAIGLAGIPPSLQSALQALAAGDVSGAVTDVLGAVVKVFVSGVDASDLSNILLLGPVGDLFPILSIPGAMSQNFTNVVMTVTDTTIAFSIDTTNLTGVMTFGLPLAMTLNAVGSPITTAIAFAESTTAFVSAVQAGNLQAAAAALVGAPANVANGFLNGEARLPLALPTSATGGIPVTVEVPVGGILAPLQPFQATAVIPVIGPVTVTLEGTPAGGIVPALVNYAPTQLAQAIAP
Assay: affinity purification with mass spectrometry; […] (50 mM Hepes pH 7.5, 150 mM NaCl, 0.1% Triton X-100, 10% glycerol) […]; only the target purified

prohibitin 2 (PHB2), endogenous in RAW264.7 cells (from UniProt O35129 1-299)
binding: binds

Results are given in words; binding and its absence hold for the method and conditions named. Binding seen in cells or lysates may run through a third protein. A yes stands for co-enrichment or nearness to the bait. Other partners may have been found. Sequences can lack the tags named with a protein.
